Source: patent US20250283871A1, “COMPOSITIONS AND METHODS FOR MODULATING THE INTERACTION BETWEEN SS18-SSX FUSION ONCOPROTEIN AND NUCLEOSOMES” (Dana-Farber Cancer Institute, Inc., priority 2020, published 2025)

B1: DKC1 (protein, UniProt O60832 2-514, looked up)
H/ACA ribonucleoprotein …: ADAEVIILPKKHKKKKERKSLPEEDVAEIQHAEEFLIKPESKVAKLDTSQWPLLLKNFDKLNVRTTHYTPLACGSNPLKREIGDYIRTGFINLDKPSNPSSHEVVAWIRRILRVEKTGHSGTLDPKVTGCLIVCIERATRLVKSQQSAGKEYVGIVRLHNAIEGGTQLSRALETLTGALFQRPPLIAAVKRQLRVRTIYESKMIEYDPERRLGIFWVSCEAGTYIRTLCVHLGLLLGVGGQMQELRRVRSGVMSEKDHMVTMHDVLDAQWLYDNHKDESYLRRVVYPLEKLLTSHKRLVMKDSAVNAICYGAKIMLPGVLRYEDGIEVNQEIVVITTKGEAICMAIALMTTAVISTCDHGIVAKIKRVIMERDTYPRKWGLGPKASQKKLMIKQGLLDKHGKPTDSTPATWKQEYVDYSESAKKEVVAEVVKAPQVVAEAAKTAKRKRESESESDETPPAAPQLIKKEKKKSKKDKKAKAGLESGAEPGDGDSDTTKKKKKKKKAKEVELVSE
B2: SKIV2L2 (protein, UniProt P42285 2-1042, looked up)
Exosome RNA helicase MTR4: ADAFGDELFSVFEGDSTTAAGTKKDKEKDKGKWKGPPGSADKAGKRFDGKLQSESTNNGKNKRDVDFEGTDEPIFGKKPRIEESITEDLSLADLMPRVKVQSVETVEGCTHEVALPAEEDYLPLKPRVGKAAKEYPFILDAFQREAIQCVDNNQSVLVSAHTSAGKTVCAEYAIALALREKQRVIFTSPIKALSNQKYREMYEEFQDVGLMTGDVTINPTASCLVMTTEILRSMLYRGSEVMREVAWVIFDEIHYMRDSERGVVWEETIILLPDNVHYVFLSATIPNARQFAEWICHLHKQPCHVIYTDYRPTPLQHYIFPAGGDGLHLVVDENGDFREDNFNTAMQVLRDAGDLAKGDQKGRKGGTKGPSNVFKIVKMIMERNFQPVIIFSFSKKDCEAYALQMTKLDFNTDEEKKMVEEVFSNAIDCLSDEDKKLPQVEHVLPLLKRGIGIHHGGLLPILKETIEILFSEGLIKALFATETFAMGINMPARTVLFTNARKFDGKDFRWISSGEYIQMSGRAGRRGMDDRGIVILMVDEKMSPTIGKQLLKGSADPLNSAFHLTYNMVLNLLRVEEINPEYMLEKSFYQFQHYRAIPGVVEKVKNSEEQYNKIVIPNEESVVIYYKIRQQLAKLGKEIEEYIHKPKYCLPFLQPGRLVKVKNEGDDFGWGVVVNFSKKSNVKPNSGELDPLYVVEVLLRCSKESLKNSATEAAKPAKPDEKGEMQVVPVLVHLLSAISSVRLYIPKDLRPVDNRQSVLKSIQEVQKRFPDGIPLLDPIDDMGIQDQGLKKVIQKVEAFEHRMYSHPLHNDPNLETVYTLCEKKAQIAIDIKSAKRELKKARTVLQMDELKCRKRVLRRLGFATSSDVIEMKGRVACEISSADELLLTEMMFNGLFNDLSAEQATALLSCFVFQENSSEMPKLTEQLAGPLRQMQECAKRIAKVSAEAKLEIDEETYLSSFKPHLMDVVYTWATGATFAHICKMTDVFEGSIIRCMRRLEELLRQMCQAAKAIGNTELENKFAEGITKIKRDIVFAASLYL
B3: TRA2A (protein, UniProt Q13595 2-282, looked up)
Transformer-2 protein homolog …: SDVEENNFEGRESRSQSKSPTGTPARVKSESRSGSRSPSRVSKHSESHSRSRSKSRSRSRRHSHRRYTRSRSHSHSHRRRSRSRSYTPEYRRRRSRSHSPMSNRRRHTGSRANPDPNTCLGVFGLSLYTTERDLREVFSRYGPLSGVNVVYDQRTGRSRGFAFVYFERIDDSKEAMERANGMELDGRRIRVDYSITKRAHTPTPGIYMGRPTHSGGGGGGGGGGGGGGGGRRRDSYYDRGYDRGYDRYEDYDYRYRRRSPSPYYSRYRSRSRSRSYSPRRY
B4: BCL7B: BAF complex subunit quantified in the IP MS (protein, UniProt Q9BQE9 1-202, looked up)
B-cell CLL/lymphoma 7 protein …: MSGRSVRAETRSRAKDDIKKVMAAIEKVRKWEKKWVTVGDTSLRIFKWVPVTDSKEKEKSKSNSSAAREPNGFPSDASANSSLLLEFQDENSNQSSVSDVYQLKVDSSTNSSPSPQQSESLSPAHTSDFRTDDSQPPTLGQEILEEPSLPSSEVADEPPTLTKEEPVPLETQVVEEEEDSGAPPLKRFCVDQPTVPQTASES
B5: FTSJ3 (protein, UniProt Q8IY81 1-847, looked up)
pre-rRNA 2'-O-ribose RNA …: MGKKGKVGKSRRDKFYHLAKETGYRSRSAFKLIQLNRRFQFLQKARALLDLCAAPGGWLQVAAKFMPVSSLIVGVDLVPIKPLPNVVTLQQDITTERCRQALRKELKTWKVDVVLNDGAPNVGASWVHDAYSQAHLTLMALRLACDFLARGGSFITKVFRSRDYQPLLWIFQQLFRRVQATKPQASRHESAEIFVVCQGFLAPDKVDSKFFDPKFAFKEVEVQAKTVTELVTKKKPKAEGYAEGDLTLYHRTSVTDFLRAANPVDFLSKASEIMVDDEELAQHPATTEDIRVCCQDIRVLGRKELRSLLNWRTKLRRYVAKKLKEQAKALDISLSSGEEDEGDEEDSTAGTTKQPSKEEEEEEEEEQLNQTLAEMKAQEVAELKRKKKKLLREQRKQRERVELKMDLPGVSIADEGETGMFSLSTIRGHQLLEEVTQGDMSAADTFLSDLPRDDIYVSDVEDDGDDTSLDSDLDPEELAGVRGHQGLRDQKRMRLTEVQDDKEEEEEENPLLVPLEEKAVLQEEQANLWFSKGSFAGIEDDADEALEISQAQLLFENRRKGRQQQQKQQLPQTPPSCLKTEIMSPLYQDEAPKGTEASSGTEAATGLEGEEKDGISDSDSSTSSEEEESWEPLRGKKRSRGPKSDDDGFEIVPIEDPAKHRILDPEGLALGAVIASSKKAKRDLIDNSFNRYTFNEDEGELPEWFVQEEKQHRIRQLPVGKKEVEHYRKRWREINARPIKKVAEAKARKKRRMLKRLEQTRKKAEAVVNTVDISEREKVAQLRSLYKKAGLGKEKRHVTYVVAKKGVGRKVRRPAGVRGHFKVVDSRMKKDQRAQQRKEQKKKHKRK
B6: MPHOSPH10 (protein, UniProt O00566 1-681, looked up)
U3 small nucleolar …: MAPQVWRRRTLERCLTEVGKATGRPECFLTIQEGLASKFTSLTKVLYDFNKILENGRIHGSPLQKLVIENFDDEQIWQQLELQNEPILQYFQNAVSETINDEDISLLPESEEQEREEDGSEIEADDKEDLEDLEEEEVSDMGNDDPEMGERAENSSKSDLRKSPVFSDEDSDLDFDISKLEQQSKVQNKGQGKPREKSIVDDKFFKLSEMEAYLENIEKEEERKDDNDEEEEDIDFFEDIDSDEDEGGLFGSKKLKSGKSSRNLKYKDFFDPVESDEDITNVHDDELDSNKEDDEIAEEEAEELSISETDEDDDLQENEDNKQHKESLKRVTFALPDDAETEDTGVLNVKKNSDEVKSSFEKRQEKMNEKIASLEKELLEKKPWQLQGEVTAQKRPENSLLEETLHFDHAVRMAPVITEETTLQLEDIIKQRIRDQAWDDVVRKEKPKEDAYEYKKRLTLDHEKSKLSLAEIYEQEYIKLNQQKTAEEENPEHVEIQKMMDSLFLKLDALSNFHFIPKPPVPEIKVVSNLPAITMEEVAPVSVSDAALLAPEEIKEKNKAGDIKTAAEKTATDKKRERRKKKYQKRMKIKEKEKRRKLLEKSSVDQAGKYSKTVASEKLKQLTKTGKASFIKDEGKDKALKSSQAFFSKLQDQVKMQINDAKKTEKKKKKRQDISVHKLKL
B7: TMPO (protein, UniProt P42166 2-694, looked up)
Lamina-associated polypeptide …: PEFLEDPSVLTKDKLKSELVANNVTLPAGEQRKDVYVQLYLQHLTARNRPPLPAGTNSKGPPDFSSDEEREPTPVLGSGAAAAGRSRAAVGRKATKKTDKPRQEDKDDLDVTELTNEDLLDQLVKYGVNPGPIVGTTRKLYEKKLLKLREQGTESRSSTPLPTISSSAENTRQNGSNDSDRYSDNEEGKKKEHKKVKSTRDIVPFSELGTTPSGGGFFQGISFPEISTRPPLGSTELQAAKKVHTSKGDLPREPLVATNLPGRGQLQKLASERNLFISCKSSHDRCLEKSSSSSSQPEHSAMLVSTAASPSLIKETTTGYYKDIVENICGREKSGIQPLCPERSHISDQSPLSSKRKALEESESSQLISPPLAQAIRDYVNSLLVQGGVGSLPGTSNSMPPLDVENIQKRIDQSKFQETEFLSPPRKVPRLSEKSVEERDSGSFVAFQNIPGSELMSSFAKTVVSHSLTTLGLEVAKQSQHDKIDASELSFPFHESILKVIEEEWQQVDRQLPSLACKYPVSSREATQILSVPKVDDEILGFISEATPLGGIQAASTESCNQQLDLALCRAYEAAASALQIATHTAFVAKAMQADISQAAQILSSDPSRTHQALGILSKTYDAASYICEAAFDEVKMAAHTMGNATVGRRYLWLKDCKINLASKNKLASTPFKGGTLFGGEVCKVIKKRGNKH

These molecules were tested on BAF complex subunits and histone proteins (assay: Mass spectrometry proteomics of purified HA-SS18 WT and HA-SS18-SSX1 complexes (Tables 5A-5E)). Settings: HA-SS18SSX1_CHR_peptides: protein identified in the HA-SS18-SSX1 purification from solubilized chromatin (CHR), HEK-293T.
Parameters: species or system human

Molecule | Total (total peptides) | Unique (unique peptides)
B1 | 8 | 7
B2 | 7 | 7
B3 | 8 | 4
B4 | 8 | 5
B5 | 7 | 7
B6 | 7 | 7
B7 | 7 | 7

Same assay, conditions: HA-SS18SSX1 purification, NE (soluble nuclear extract) fraction, HEK-293T; peptides per identified protein

Molecule | Total (total peptides) | Unique (unique peptides)
B4 | 4 | 4
B7 | 7 | 6

Same assay, conditions: HA-SS18WT_CHR_peptides: HA-SS18 WT purification from nuclease-treated solubilized chromatin (CHR), HEK-293T; label = protein identified

Molecule | Total (peptides) | Unique (peptides)
B2 | 3 | 3
B4 | 3 | 3
B5 | 12 | 12
B6 | 7 | 6
B7 | 3 | 3

Same assay, conditions: HA-SS18WT_CHR_peptides: protein identified in HA-SS18 WT BAF complex purification from nuclease-treated solubilized chromatin (CHR), HEK-293T

Molecule | Total (total peptides) | Unique (unique peptides)
B1 | 1 | 1
B3 | 2 | 2

Same assay, conditions: HA-SS18WT_NE_peptides: HA-SS18 WT complexes purified from nuclear extract (NE), HEK-293T; label = protein identified (Gene Symbol)

Molecule | Total (peptides) | Unique (peptides)
B4 | 12 | 5

Same assay, conditions: HA-SS18WT_NE_peptides: proteins co-purified with HA-SS18 WT from nuclear extract (NE), HEK-293T

Molecule | Total (peptides) | Unique (peptides)
B2 | 2 | 2
B7 | 2 | 2
